# The other results are listed elsewhere or left out.
# By UniProt entry, the sequences of proteins in these tests, tags left out. Where a name states a change or a piece, a line headed by the entry shows the natural chain unless it says otherwise.
# UniProt Q9UQB8: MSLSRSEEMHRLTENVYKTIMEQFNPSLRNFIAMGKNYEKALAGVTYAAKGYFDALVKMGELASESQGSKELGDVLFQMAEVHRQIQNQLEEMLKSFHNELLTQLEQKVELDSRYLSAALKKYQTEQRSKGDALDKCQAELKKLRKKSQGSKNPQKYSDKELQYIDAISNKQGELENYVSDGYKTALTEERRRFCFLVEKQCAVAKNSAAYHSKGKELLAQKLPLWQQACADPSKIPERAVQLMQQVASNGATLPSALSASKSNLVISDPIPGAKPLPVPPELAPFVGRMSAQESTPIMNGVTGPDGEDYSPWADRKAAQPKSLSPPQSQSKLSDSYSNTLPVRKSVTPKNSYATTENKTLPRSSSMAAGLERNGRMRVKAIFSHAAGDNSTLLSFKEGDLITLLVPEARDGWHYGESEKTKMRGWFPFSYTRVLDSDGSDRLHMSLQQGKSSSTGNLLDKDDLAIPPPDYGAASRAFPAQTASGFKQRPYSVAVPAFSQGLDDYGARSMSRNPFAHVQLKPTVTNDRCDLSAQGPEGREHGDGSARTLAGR
# UniProt O95999: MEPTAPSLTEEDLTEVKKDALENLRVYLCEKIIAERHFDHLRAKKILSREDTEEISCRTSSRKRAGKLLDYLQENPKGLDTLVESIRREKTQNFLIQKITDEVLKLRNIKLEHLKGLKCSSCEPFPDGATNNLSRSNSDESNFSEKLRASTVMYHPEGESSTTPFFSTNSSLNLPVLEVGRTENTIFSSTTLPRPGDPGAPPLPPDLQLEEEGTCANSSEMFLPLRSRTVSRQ
# UniProt Q9NRL2: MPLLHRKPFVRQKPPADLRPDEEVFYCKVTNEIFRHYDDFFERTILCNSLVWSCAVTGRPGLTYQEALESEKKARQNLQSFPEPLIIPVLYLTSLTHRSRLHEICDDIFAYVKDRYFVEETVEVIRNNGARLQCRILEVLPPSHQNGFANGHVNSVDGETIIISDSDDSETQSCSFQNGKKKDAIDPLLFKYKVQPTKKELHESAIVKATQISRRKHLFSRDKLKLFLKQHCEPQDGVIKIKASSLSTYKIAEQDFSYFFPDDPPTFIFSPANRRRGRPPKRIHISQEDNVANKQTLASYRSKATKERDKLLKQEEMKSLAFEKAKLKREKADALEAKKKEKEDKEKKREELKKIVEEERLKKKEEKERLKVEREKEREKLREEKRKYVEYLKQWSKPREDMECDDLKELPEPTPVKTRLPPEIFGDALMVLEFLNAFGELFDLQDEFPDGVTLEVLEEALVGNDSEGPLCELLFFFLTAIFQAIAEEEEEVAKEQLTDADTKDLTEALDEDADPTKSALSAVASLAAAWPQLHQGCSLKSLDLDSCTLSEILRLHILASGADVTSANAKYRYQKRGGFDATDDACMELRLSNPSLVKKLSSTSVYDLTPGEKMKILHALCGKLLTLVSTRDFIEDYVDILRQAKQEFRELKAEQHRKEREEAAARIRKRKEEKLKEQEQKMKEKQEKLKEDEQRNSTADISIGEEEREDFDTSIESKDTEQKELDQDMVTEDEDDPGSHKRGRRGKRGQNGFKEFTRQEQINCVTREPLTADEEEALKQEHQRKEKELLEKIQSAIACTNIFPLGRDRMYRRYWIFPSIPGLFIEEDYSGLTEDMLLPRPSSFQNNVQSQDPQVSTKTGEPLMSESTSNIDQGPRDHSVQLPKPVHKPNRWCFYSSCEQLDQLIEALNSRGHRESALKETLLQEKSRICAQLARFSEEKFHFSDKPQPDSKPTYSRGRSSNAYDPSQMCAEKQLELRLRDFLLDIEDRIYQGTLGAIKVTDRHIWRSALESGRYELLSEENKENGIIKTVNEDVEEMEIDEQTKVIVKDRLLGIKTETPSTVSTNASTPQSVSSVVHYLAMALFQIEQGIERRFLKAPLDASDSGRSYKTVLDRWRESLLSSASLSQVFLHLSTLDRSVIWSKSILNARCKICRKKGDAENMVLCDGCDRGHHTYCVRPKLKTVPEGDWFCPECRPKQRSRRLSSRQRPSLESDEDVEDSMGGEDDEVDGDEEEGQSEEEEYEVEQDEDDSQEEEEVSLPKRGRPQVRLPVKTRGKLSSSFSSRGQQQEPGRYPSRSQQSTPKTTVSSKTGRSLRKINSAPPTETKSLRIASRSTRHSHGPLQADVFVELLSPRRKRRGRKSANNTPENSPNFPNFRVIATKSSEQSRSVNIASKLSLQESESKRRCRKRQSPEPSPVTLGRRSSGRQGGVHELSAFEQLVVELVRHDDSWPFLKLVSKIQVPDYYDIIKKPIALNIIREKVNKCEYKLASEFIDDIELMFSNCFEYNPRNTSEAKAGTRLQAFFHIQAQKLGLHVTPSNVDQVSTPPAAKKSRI
# UniProt P53004: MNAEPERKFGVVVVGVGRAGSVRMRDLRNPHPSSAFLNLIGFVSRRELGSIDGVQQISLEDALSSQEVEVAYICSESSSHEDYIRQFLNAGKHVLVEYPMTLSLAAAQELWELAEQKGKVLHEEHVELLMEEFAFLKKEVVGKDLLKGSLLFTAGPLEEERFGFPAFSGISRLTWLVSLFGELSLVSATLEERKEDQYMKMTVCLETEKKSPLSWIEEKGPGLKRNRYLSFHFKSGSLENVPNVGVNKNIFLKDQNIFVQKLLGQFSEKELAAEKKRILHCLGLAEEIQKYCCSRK
# UniProt P21953: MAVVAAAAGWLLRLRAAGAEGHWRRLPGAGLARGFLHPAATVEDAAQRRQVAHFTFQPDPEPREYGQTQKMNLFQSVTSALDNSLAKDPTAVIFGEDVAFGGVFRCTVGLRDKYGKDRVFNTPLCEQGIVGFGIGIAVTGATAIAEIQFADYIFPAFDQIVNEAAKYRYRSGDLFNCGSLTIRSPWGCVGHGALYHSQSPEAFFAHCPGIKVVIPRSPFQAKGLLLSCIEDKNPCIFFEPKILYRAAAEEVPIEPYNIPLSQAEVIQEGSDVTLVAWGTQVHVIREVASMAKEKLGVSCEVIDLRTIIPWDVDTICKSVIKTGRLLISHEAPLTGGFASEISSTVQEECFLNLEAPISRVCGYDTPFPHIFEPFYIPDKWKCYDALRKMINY
# UniProt Q9UIF9: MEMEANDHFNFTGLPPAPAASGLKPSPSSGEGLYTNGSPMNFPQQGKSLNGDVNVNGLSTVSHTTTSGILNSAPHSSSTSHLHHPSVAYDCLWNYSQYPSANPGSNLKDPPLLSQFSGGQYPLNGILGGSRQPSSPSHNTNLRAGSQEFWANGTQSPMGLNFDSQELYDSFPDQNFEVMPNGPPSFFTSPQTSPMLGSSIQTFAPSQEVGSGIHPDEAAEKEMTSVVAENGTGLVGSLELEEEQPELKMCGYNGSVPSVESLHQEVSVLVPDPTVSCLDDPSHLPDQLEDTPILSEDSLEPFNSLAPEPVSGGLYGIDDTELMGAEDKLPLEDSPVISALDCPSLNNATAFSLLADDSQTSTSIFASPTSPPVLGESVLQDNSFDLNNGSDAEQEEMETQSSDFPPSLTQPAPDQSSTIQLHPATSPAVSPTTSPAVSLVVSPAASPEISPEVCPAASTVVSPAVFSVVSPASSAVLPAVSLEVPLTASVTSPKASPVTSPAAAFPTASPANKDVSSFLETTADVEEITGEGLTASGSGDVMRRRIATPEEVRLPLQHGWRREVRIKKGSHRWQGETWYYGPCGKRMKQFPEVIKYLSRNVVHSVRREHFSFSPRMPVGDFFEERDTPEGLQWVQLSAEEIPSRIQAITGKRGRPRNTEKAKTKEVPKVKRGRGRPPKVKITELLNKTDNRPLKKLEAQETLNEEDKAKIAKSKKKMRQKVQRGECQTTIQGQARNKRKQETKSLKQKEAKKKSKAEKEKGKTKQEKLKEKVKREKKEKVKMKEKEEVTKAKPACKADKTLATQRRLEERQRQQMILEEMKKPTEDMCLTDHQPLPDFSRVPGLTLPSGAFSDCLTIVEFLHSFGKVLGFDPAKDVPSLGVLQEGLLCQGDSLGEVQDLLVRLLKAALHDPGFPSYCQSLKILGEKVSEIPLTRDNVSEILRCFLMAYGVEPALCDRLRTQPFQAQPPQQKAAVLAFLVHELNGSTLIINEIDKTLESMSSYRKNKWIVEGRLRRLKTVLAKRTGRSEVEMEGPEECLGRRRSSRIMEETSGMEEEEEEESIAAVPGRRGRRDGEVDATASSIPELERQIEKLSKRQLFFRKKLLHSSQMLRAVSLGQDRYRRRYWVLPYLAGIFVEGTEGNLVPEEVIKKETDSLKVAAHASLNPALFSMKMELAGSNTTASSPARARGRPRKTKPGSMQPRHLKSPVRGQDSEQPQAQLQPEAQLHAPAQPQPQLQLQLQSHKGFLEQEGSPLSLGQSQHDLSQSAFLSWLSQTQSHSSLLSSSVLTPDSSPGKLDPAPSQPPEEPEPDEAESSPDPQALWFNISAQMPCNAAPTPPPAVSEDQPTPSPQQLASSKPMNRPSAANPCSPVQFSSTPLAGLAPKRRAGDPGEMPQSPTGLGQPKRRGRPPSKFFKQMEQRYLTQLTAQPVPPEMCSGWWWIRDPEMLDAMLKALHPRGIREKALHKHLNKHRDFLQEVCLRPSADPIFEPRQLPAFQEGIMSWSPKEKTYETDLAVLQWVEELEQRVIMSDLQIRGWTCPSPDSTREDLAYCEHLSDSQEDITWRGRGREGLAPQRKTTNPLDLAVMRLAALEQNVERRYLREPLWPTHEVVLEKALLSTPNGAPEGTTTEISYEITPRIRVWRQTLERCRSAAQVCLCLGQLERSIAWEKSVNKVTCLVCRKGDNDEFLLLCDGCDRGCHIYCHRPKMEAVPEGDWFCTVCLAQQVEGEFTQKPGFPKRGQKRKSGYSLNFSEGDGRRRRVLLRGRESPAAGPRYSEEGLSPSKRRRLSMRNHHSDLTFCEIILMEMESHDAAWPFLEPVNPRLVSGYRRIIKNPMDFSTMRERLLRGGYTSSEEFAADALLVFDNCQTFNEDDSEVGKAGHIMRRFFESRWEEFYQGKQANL
# UniProt Q9UBB4: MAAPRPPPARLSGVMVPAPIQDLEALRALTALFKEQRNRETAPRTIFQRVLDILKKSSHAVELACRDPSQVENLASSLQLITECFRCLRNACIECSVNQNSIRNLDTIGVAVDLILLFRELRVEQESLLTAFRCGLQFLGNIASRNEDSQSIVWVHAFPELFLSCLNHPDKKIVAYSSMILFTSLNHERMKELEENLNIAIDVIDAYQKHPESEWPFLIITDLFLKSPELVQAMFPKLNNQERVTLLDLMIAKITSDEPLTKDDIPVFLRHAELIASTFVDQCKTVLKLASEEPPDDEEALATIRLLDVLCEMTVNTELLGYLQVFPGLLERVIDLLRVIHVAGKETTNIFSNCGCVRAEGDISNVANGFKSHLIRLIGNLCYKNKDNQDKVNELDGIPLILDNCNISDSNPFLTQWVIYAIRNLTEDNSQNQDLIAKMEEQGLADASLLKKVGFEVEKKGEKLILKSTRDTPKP
# UniProt Q99933: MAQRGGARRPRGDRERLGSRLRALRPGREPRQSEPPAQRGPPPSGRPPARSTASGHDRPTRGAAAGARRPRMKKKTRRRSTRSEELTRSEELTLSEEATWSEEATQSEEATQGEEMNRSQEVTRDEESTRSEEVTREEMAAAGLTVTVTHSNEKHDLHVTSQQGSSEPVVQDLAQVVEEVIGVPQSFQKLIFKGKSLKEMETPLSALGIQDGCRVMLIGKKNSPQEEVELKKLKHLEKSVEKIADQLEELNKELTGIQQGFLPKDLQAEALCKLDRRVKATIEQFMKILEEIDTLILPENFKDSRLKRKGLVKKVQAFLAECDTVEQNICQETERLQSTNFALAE
# UniProt Q8WV28: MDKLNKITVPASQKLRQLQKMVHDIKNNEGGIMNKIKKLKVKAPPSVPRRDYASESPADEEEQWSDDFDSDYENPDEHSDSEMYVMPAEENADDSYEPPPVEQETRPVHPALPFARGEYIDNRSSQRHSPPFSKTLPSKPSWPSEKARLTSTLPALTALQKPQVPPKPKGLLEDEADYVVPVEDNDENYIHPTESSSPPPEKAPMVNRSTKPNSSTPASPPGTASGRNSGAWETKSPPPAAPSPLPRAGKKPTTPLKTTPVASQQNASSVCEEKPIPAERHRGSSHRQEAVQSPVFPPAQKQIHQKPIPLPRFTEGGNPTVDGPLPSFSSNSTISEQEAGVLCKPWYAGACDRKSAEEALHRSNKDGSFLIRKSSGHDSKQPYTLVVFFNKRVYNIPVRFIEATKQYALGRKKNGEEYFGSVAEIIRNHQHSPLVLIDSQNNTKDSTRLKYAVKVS
# UniProt P07738: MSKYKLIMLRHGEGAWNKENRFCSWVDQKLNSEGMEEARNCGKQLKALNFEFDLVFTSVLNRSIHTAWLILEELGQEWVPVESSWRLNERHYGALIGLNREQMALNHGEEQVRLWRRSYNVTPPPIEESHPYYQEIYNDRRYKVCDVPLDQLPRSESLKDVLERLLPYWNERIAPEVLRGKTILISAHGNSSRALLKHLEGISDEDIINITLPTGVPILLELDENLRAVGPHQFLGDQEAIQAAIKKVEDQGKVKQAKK
# Compound: Cc1cc(ccc1-c1ccccc1)C(=O)N1CCCN(CC1)C(=O)CCl [compound 10]
# Experiment: probe-labelled cysteine peptide fold change vs DMSO (competition) (log2 fold change); higher = less target engagement (more negative = stronger competition)
# Details: THP-1, incubation time: 4 h
# 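Further: competitive profiling in live THP-1 cells: cysteine peptides tagged with an iodoacetamide desthiobiotin (IA-DTB) probe, intensity after compound treatment relative to DMSO-treated cells.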
Target,probe-labelled cysteine peptide fold change (10 µM),probe-labelled cysteine peptide fold change (50 µM)
BAIAP2_Q9UQB8_202_QCAVAK (UniProt Q9UQB8),-0.153,-0.249
BCL10_O95999_57_EDTEEISCR (UniProt O95999),0.0353,0.0524
BAZ1A_Q9NRL2_764_QEQINCVTREPLTADEEEALK (UniProt Q9NRL2),0.0138,-0.149
BICD2_Q8TD16_544_KVSDVAGETQGSLSVAQDELVTFSEELANLYHHVCMCNNETPNR (UniProt Q8TD16),-0.109,-0.708
BIN2_Q9UBW5_496_ENENIHNQNPEELCTSPTLMTSQVASEPGEAK (UniProt Q9UBW5),0.0699,-0.541
BPTF_Q12830_1471_CELVSGESTGNCEDRLPVK (UniProt Q12830),-0.216,-0.229
BLVRA_P53004_204_MTVCLETEK (UniProt P53004),0.145,0.0167
BCKDHB_P21953_299_LGVSCEVIDLR (UniProt P21953),-0.0102,-0.0302
BOP1_Q14137_690_YPLFASGSDDGSVIVCHGMVYNDLLQNPLLVPVK (UniProt Q14137),0.16,-0.0619
BAZ2A_Q9UIF9_795_AKPACK (UniProt Q9UIF9),-0.144,-0.471
ATXN10_Q9UBB4_92_NACIECSVNQNSIR (UniProt Q9UBB4),0.126,0.196
BAG1_Q99933_272_DLQAEALCK (UniProt Q99933),-0.0132,-0.446
BLNK_Q8WV28_271_TTPVASQQNASSVCEEKPIPAER (UniProt Q8WV28),-0.0862,-0.34
BPGM_P07738_23_FCSWVDQK (UniProt P07738),-0.262,-0.0213

# An excerpt of these results, with tabs:
Target	probe-labelled cysteine peptide fold change (10 µM)	probe-labelled cysteine peptide fold change (50 µM)
BICD2_Q8TD16_544_KVSDVAGETQGSLSVAQDELVTFSEELANLYHHVCMCNNETPNR (UniProt Q8TD16)	-0.109	-0.708
BIN2_Q9UBW5_496_ENENIHNQNPEELCTSPTLMTSQVASEPGEAK (UniProt Q9UBW5)	0.0699	-0.541

# — the supplement of paper PMC12067093, “Discovery and optimisation of a covalent ligand for TRIM25 and its application to targeted protein ubiquitination” (Chemical Science, 2025)
